# Data taken from US20140335532A1, “HUMAN SKIN SAMPLE METHODS AND MODELS FOR VALIDATING HYPOTHESES FOR MECHANISMS DRIVING SKIN PIGMENTATION” (The Procter & Gamble Company, priority 2011, published 2014).
# For at least one compound, name, drawing or mass did not settle the structure.
# Test system: tone genes of interest
# Assay: Ex-vivo tissue culture exposed to compounds known to stimulate the pigmentation pathway, tone gene regulation
# Format: cell-based, human
# Details: p≦0.1, minimum of 2-10 experiments each, FIG. 16
smiles,measurement,value
C=C[C@@]1(C)CC(=O)[C@]2(O)[C@@]3(C)[C@@H](O)CCC(C)(C)[C@@H]3[C@H](O)[C@H](OC(C)=O)[C@@]2(C)O1 [Forskolin],Regulation of tone genes of interest,up regulate one or more tone genes of interest
